Measurements from paper PMC3892156.
Numbering of substitutions follows the chain as printed. No constants are given. Whether binding was seen depends on the method and setting. Binding seen in cells or lysates may run through a third protein. Some results given as binding are weak or reduced against the parent protein; the word gives no strength. Where a sequence is shown, tags or fusion partners need not be part of it.

Amino acid sequences for entries named in this document (tags omitted). A change or cut given only in a name is not applied to a line headed by its entry.
UniProt P27112: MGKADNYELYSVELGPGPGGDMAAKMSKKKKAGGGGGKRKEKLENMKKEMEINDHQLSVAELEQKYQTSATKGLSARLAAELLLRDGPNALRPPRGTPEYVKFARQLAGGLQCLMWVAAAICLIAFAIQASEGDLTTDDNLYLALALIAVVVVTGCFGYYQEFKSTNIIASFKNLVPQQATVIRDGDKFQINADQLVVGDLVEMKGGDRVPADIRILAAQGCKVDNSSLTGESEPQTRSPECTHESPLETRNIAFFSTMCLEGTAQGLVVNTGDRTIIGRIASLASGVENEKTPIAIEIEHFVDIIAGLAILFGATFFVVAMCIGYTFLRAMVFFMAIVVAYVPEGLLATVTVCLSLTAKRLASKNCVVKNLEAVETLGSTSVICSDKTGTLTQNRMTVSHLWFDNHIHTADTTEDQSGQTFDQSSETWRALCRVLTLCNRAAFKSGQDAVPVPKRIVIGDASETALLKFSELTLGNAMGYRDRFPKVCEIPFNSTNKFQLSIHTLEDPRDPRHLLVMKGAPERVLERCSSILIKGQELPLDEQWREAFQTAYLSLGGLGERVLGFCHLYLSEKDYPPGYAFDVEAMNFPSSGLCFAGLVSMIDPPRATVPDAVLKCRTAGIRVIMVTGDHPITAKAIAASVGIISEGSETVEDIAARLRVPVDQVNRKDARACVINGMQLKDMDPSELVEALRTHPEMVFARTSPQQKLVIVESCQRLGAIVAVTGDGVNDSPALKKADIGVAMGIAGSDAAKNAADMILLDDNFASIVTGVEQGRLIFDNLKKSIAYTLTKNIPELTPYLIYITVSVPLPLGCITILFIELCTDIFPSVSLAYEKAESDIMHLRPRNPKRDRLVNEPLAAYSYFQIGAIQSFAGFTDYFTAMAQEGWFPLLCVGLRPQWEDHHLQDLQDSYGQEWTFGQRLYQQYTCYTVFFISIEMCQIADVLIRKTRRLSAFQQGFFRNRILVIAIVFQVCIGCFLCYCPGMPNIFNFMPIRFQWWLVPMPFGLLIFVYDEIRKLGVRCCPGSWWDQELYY

How the values were obtained:
[1] = target: T1, E211A-ClC-5 (rat ClC-5 mutant, Xpress- and His-tagged) (rat) (UniProt P51796); assay: co-IP; detergent extract (1% Nonidet P-40, 150 mM NaCl, 0.5 mM EDTA, 50 mM Tris-HCl pH 7.4) of membrane fractions of Tet-on HEK293 cells; anti-His tag antibody (for ClC-5) and protein A-agarose, 4°C; control without antibody; Western blot with anti-Xpress, anti-HKα (1H9), anti-NKα1
T1 sequence: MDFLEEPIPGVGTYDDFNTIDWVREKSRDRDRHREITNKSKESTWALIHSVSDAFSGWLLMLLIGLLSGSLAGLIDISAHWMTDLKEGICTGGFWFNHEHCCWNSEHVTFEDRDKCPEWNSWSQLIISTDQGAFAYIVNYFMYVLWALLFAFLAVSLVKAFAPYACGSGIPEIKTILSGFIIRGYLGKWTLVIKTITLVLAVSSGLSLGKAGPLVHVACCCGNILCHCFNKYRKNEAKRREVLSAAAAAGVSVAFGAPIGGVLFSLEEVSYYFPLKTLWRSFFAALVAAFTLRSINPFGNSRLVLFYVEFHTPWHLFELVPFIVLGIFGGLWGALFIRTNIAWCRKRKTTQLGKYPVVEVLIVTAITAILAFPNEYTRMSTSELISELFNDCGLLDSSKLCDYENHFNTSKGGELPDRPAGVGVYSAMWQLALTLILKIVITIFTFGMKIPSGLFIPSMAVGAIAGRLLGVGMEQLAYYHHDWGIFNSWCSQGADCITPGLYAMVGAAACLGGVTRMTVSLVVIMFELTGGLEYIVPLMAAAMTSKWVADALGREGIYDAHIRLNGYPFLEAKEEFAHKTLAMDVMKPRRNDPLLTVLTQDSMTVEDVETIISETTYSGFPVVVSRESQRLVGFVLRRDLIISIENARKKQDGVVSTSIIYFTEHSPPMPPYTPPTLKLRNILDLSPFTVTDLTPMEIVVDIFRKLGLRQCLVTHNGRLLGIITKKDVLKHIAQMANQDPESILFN

[2] = target: T2, WT-ClC-5 (rat ClC-5, Xpress- and His-tagged) (rat) (UniProt P51796); assay: as above
T2 sequence: T1 sequence with A211E

Substance: gastric H+,K+-ATPase (α- and β-subunits) stably expressed in HEK293 cells (from UniProt P27112 1-1035; P18597 1-291) (complex)
- binding [1]: binds
- binding [2]: binds
